# PubChem BioAssay AID2685 (National Center for Advancing Translational Sciences (NCATS), 2010)
# The list shows a part of the results. Shown are side measurements of this screen, not its main read-out; they come without a call. Most of these compounds were active or inconclusive in the main read-out, so they are no random draw. Potencies come from curve fits of mixed quality, noted in brackets.
# Assay: qHTS Assay for Lipid Storage Modulators in Drosophila S3 Cells;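 as to cell number change: cells counted by Cell Tracker Red CMTPX staining in the red channel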
# Conditions: BODIPY lipid droplet fluorescence, 18-24 h; for cell number change: measured here: cell count max response, cells fed with added oleic acid
# Summary of the method: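 Drosophila S3 cells loaded with oleic acid (400 uM, as added) and compounds at several concentrations; lipid droplets imaged by 488-nm laser-scanning cytometry, 500–530 nm intensity and object ratio to cell channel. Percent activity normalized to 20 uM Triacsin C.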
# [1] = measured here: cell number channel AC50, cells fed with added oleic acid
# [2] = measured here: lipid fluorescence (Fed channel) AC50, cells fed with added oleic acid
smiles,measurement,setting,value
CCOC(=O)c1c(C)[nH]c(C(=O)CSc2nccc(C)n2)c1C,cell number change,,49.5%
same,AC50,[1],"0.00411 µM [rising, full curve, poor fit]"
same,AC50,[2],"29.1 µM [rising, partial curve]"
C=C(C)Cn1c(SCC(=O)O)nnc1-c1ccc(C(C)(C)C)cc1,AC50,[2],"1.84 µM [falling, partial curve, poor fit]"
CC(C(=O)N1CCc2ccccc21)N1CCN(Cc2ccccc2)CC1 (stereo unspecified),cell number change,,-11.1%
same,AC50,[2],"0.58 µM [falling, single point]"
CCC1(C)Cc2c(sc3c2c(=O)n(C)c2nnc(SCc4ccc5c(c4)OCO5)n32)CO1 (stereo unspecified),cell number change,,-4.04%
same,AC50,[1],"0.58 µM [rising, full curve]"
same,AC50,[2],"16.4 µM [rising, single point]"
COc1ccc(S(=O)(=O)N2CCc3ccccc3C2)cc1C(=O)O,cell number change,,1.39%
COc1ccc(NS(=O)(=O)c2cccc(C(=O)NNC(=O)COc3ccccc3)c2)cc1,cell number change,,-48%
same,AC50,[1],"0.231 µM [falling, full curve]"
same,AC50,[2],"0.116 µM [falling, full curve, poor fit]"
COC(=O)c1ccccc1NC(=O)C1CCN(C(=O)c2cc(OC)cc(OC)c2)CC1,cell number change,,43.8%
same,AC50,[1],"0.651 µM [rising, full curve]"
N#C/C=C1\n2c(nc3ccccc32)OC12CCCCC2,cell number change,,4.26%
same,AC50,[2],"0.103 µM [rising, full curve, poor fit]"
CCOc1ccccc1NC(=O)C1CCCN1C(=O)OCc1ccccc1 (stereo unspecified),cell number change,,-13%
same,AC50,[2],"2.59 µM [rising, full curve]"
Fc1ccc(N2CCN(Cc3cnc(N4CCOCC4)s3)CC2)cc1,cell number change,,27.1%
same,AC50,[2],"0.651 µM [rising, full curve]"
O=C(N1CCOCC1)N1CCOCC1,cell number change,,0.685%
Cc1ccc(C(=O)NCC(c2cccs2)N(C)C)cc1S(=O)(=O)N1CCOCC1 (stereo unspecified),cell number change,,-28.4%
same,AC50,[2],"18.4 µM [falling, single point]"
COCCn1c(SCC(=O)NC2CCCCC2C)nc2ccccc2c1=O (stereo unspecified),cell number change,,14.8%
same,AC50,[2],"29.1 µM [falling, single point]"
O=c1cc(CO)oc(C(Nc2ccccn2)c2ccc(F)cc2)c1O (stereo unspecified),cell number change,,-89.1%
same,AC50,[1],"16.4 µM [falling, partial curve]"
same,AC50,[2],"18.4 µM [falling, partial curve]"
COc1cccc(C(C(=O)NC2CCCC2)N(C(=O)c2ccco2)c2ccccc2F)c1OC (stereo unspecified),cell number change,,-6.58%
CCC(=O)N(Cc1cc(=O)[nH]c2ccccc12)c1ccc(OC)cc1,cell number change,,12.5%
same,AC50,[1],"0.291 µM [rising, full curve, poor fit]"
same,AC50,[2],"29.1 µM [rising, single point]"
CCCCN(C)S(=O)(=O)c1ccc(C(=O)N=c2sc3cc(NC(C)=O)ccc3n2C)cc1,cell number change,,-11.7%
same,AC50,[1],"0.326 µM [falling, partial curve, poor fit]"
same,AC50,[2],"16.4 µM [rising, single point]"
O=C(CNC(=O)COc1ccccc1)NCc1cccnc1,cell number change,,7.66%
same,AC50,[2],"2.31 µM [rising, partial curve]"
COC(=O)c1cc(S(=O)(=O)NC2CCC(C)CC2)cn1C (stereo unspecified),cell number change,,-6.93%
O=C(NC1CCCc2ccccc21)c1cccc(S(=O)(=O)N2CCN(c3ccccc3)CC2)c1 (stereo unspecified),cell number change,,31.9%
same,AC50,[1],"29.1 µM [rising, single point]"
CC(=O)/C=C/n1c(=S)oc2ccccc21,cell number change,,-41.8%
same,AC50,[1],"6.51 µM [falling, partial curve]"
same,AC50,[2],"2.59 µM [falling, full curve]"
CCOc1ccc(/C=C/C(=O)N(CC)CC(=O)Nc2ccc3c(c2)OCCO3)cc1OCC,AC50,[2],"29.1 µM [rising, single point]"
O=C(Nc1ccc(C(=O)N2CCCCC2)cc1)c1ccc([N+](=O)[O-])cc1,cell number change,,-6.44%
same,AC50,[2],"29.1 µM [rising, single point]"
N#Cc1cn(-c2ccccc2)nc1C(=O)c1ccccc1,AC50,[1],"0.731 µM [rising, single point]"
CCc1ccc(C(=O)C[n+]2cccc3cc(OC)ccc32)cc1,cell number change,,-7.5%
same,AC50,[2],"14.6 µM [falling, single point]"
CCN(CC(=O)NCc1ccc(Cl)cc1)C(=O)/C=C/c1ccc(C#N)cc1,cell number change,,21.3%
same,AC50,[2],"6.51 µM [falling, single point]"
CCNc1oc(-c2ccccc2F)nc1S(=O)(=O)c1ccccc1,cell number change,,-4.34%
O=C(O)C1CC=CCC1C(=O)Nc1cccc(C(=O)N2CCCCC2)c1 (stereo unspecified),cell number change,,6.64%
O=[N+]([O-])c1cc(C(F)(F)F)cc([N+](=O)[O-])c1NCCCNc1ccc([N+](=O)[O-])c2cccnc12,cell number change,,-40.4%
same,AC50,[1],"23.1 µM [falling, single point]"
same,AC50,[2],"18.4 µM [falling, partial curve]"
Cc1cc(C)c(C)c(S(=O)(=O)N2CCN(C(=O)CNC(=O)c3ccco3)CC2)c1C,cell number change,,4.37%
same,AC50,[2],"8.2 µM [rising, partial curve]"
COc1cc(C(C#N)N2CCOCC2)ccc1O (stereo unspecified),cell number change,,-8.31%
Cc1ccc(OCC(=O)NNC(=O)CSC(=S)N2CCCC2)cc1,cell number change,,-92.2%
same,AC50,[1],"20.6 µM [falling, single point]"
same,AC50,[2],"29.1 µM [rising, single point]"
COc1ccc(CCNC(C)=O)cc1,cell number change,,1.11%
same,AC50,[2],"0.146 µM [falling, full curve, poor fit]"
Cc1nn(C(=O)CCC(=O)NCCc2ccccc2)c2ccccc12,AC50,[1],"0.082 µM [rising, full curve, poor fit]"
CCC(C)c1ccc(NC(=O)COC(=O)c2nc3nccc(C)n3n2)cc1 (stereo unspecified),cell number change,,21.9%
same,AC50,[2],"0.631 µM [rising, full curve, poor fit]"
CC(NC(=O)NC(=O)c1ccc(Cl)cc1)c1ccccc1 (stereo unspecified),cell number change,,-19.3%
same,AC50,[2],"29.1 µM [rising, single point]"
Cc1ccc2cc(CN(c3ccccc3)S(=O)(=O)c3ccccc3)c(=O)[nH]c2c1,cell number change,,9.93%
O=C(N/N=C/c1cc(Br)c(O)c(Br)c1O)c1ccc2c(c1)OCCO2,cell number change,,5.88%
same,AC50,[2],"0.206 µM [rising, single point]"
CS(=O)(=O)N(CC(=O)N1CCOCC1)c1ccccc1,cell number change,,-1.92%
same,AC50,[2],"20.6 µM [rising, single point]"
CN1C(=O)/C(=C\C(=O)c2cccs2)c2ccccc21,cell number change,,-31.5%
same,AC50,[1],"7.31 µM [falling, single point]"
CC(CNC(=O)CCc1nnc(CCC2CCCCC2)o1)c1ccccc1 (stereo unspecified),cell number change,,-29.8%
same,AC50,[2],"18.4 µM [falling, partial curve]"
COc1ccc(C(C)NC(=S)NC2CCCCC2)cc1OC (stereo unspecified),cell number change,,15.5%
Cc1ccc(NC(=O)C(=O)NCCN2CCN(S(=O)(=O)c3ccccc3)CC2)cc1C,cell number change,,20.2%
same,AC50,[1],"0.092 µM [falling, full curve, poor fit]"
Cc1cc(C)n2nc(NCc3ccccc3)nc2n1,cell number change,,5.23%
CCOC(=O)c1cc(C)sc1NC(=S)Nc1ccccc1,cell number change,,34.8%
same,AC50,[1],"8.2 µM [rising, partial curve, poor fit]"
same,AC50,[2],"4.11 µM [rising, partial curve, poor fit]"
O=C(Nc1cccc(Cl)c1N1CCOCC1)c1ccc([N+](=O)[O-])o1,cell number change,,10.7%
same,AC50,[2],"0.184 µM [rising, full curve, poor fit]"
CCN(CC)c1ccc(/C=N/NC(=O)c2ccco2)cc1,cell number change,,6.66%
same,AC50,[2],"1.03 µM [rising, full curve, poor fit]"
NC(=O)C1CCN(C(=O)CCc2ccsc2)CC1,cell number change,,10.8%
same,AC50,[2],"32.6 µM [rising, partial curve, poor fit]"
COc1ccc(-c2c3c(nc4sc5c(=O)[nH]c(C)nc5c24)CCC3)cc1,cell number change,,-10.8%
same,AC50,[2],"1.3 µM [rising, partial curve]"
CC1(C)C(=O)OC(C(=O)c2ccccc2)C(C)(C)C1=O (stereo unspecified),cell number change,,3.5%
same,AC50,[2],"0.146 µM [rising, full curve, poor fit]"
Cc1cc2c(cc(C(=O)O)n2C)s1,cell number change,,8.85%
same,AC50,[2],"4.61 µM [falling, full curve, poor fit]"
CN(C)c1cc[n+](/C(C(=S)Nc2ccc(SC(F)F)cc2)=C(/[O-])c2ccccc2)cc1,cell number change,,-9.34%
same,AC50,[1],"6.51 µM [rising, single point]"
same,AC50,[2],"6.51 µM [rising, single point]"
CCOC(=O)c1[nH]c2ccc(Br)cc2c1NC(=O)CCN1CCCC(C)(C)C1,cell number change,,15.4%
same,AC50,[2],"29.1 µM [rising, single point]"
COc1cc(/C=N/n2nnnc2Nc2ccccc2)cc(OC)c1OC,cell number change,,9.94%
same,AC50,[2],"1.03 µM [rising, full curve, poor fit]"
CCOC(=O)Cc1csc(NC(=O)COc2cccc(C)c2)n1,AC50,[1],"0.00461 µM [rising, full curve, poor fit]"
Cc1nn(C)cc1C(C(=O)NC1CCCCC1)N(C(=O)Cc1cccs1)c1ccc(F)cc1 (stereo unspecified),cell number change,,-5.5%
same,AC50,[1],"1.03 µM [rising, partial curve]"
same,AC50,[2],"8.2 µM [falling, partial curve, poor fit]"
CC(C)Cn1c(CN2CCN(C)C(CCO)C2)nc2ccccc21 (stereo unspecified),cell number change,,15.3%
same,AC50,[2],"0.164 µM [rising, full curve, poor fit]"
CCc1ccccc1NC(=O)CCN1C(=O)c2ccccc2C1=O,AC50,[1],"0.326 µM [rising, full curve, poor fit]"
same,AC50,[2],"4.11 µM [rising, full curve, poor fit]"
CC(C)CNC(=O)c1cccc(NC(=O)C(C)Oc2ccccc2)c1 (stereo unspecified),cell number change,,-30.3%
same,AC50,[1],"29.1 µM [falling, single point]"
CCc1nc2ccccc2c(C(=O)OCC(=O)C(C)(C)C)c1C,cell number change,,11.2%

# Part of the list above, tab-delimited:
smiles	measurement	setting	value
CCOc1ccccc1NC(=O)C1CCCN1C(=O)OCc1ccccc1 (stereo unspecified)	AC50	[2]	2.59 µM [rising, full curve]
Fc1ccc(N2CCN(Cc3cnc(N4CCOCC4)s3)CC2)cc1	cell number change		27.1%
same	AC50	[2]	0.651 µM [rising, full curve]
O=C(N1CCOCC1)N1CCOCC1	cell number change		0.685%
Cc1ccc(C(=O)NCC(c2cccs2)N(C)C)cc1S(=O)(=O)N1CCOCC1 (stereo unspecified)	cell number change		-28.4%
same	AC50	[2]	18.4 µM [falling, single point]
COCCn1c(SCC(=O)NC2CCCCC2C)nc2ccccc2c1=O (stereo unspecified)	cell number change		14.8%
same	AC50	[2]	29.1 µM [falling, single point]
O=c1cc(CO)oc(C(Nc2ccccn2)c2ccc(F)cc2)c1O (stereo unspecified)	cell number change		-89.1%
same	AC50	[1]	16.4 µM [falling, partial curve]
same	AC50	[2]	18.4 µM [falling, partial curve]
COc1cccc(C(C(=O)NC2CCCC2)N(C(=O)c2ccco2)c2ccccc2F)c1OC (stereo unspecified)	cell number change		-6.58%
CCC(=O)N(Cc1cc(=O)[nH]c2ccccc12)c1ccc(OC)cc1	cell number change		12.5%
same	AC50	[1]	0.291 µM [rising, full curve, poor fit]
same	AC50	[2]	29.1 µM [rising, single point]
CCCCN(C)S(=O)(=O)c1ccc(C(=O)N=c2sc3cc(NC(C)=O)ccc3n2C)cc1	cell number change		-11.7%
same	AC50	[1]	0.326 µM [falling, partial curve, poor fit]
same	AC50	[2]	16.4 µM [rising, single point]
O=C(CNC(=O)COc1ccccc1)NCc1cccnc1	cell number change		7.66%
same	AC50	[2]	2.31 µM [rising, partial curve]
COC(=O)c1cc(S(=O)(=O)NC2CCC(C)CC2)cn1C (stereo unspecified)	cell number change		-6.93%
O=C(NC1CCCc2ccccc21)c1cccc(S(=O)(=O)N2CCN(c3ccccc3)CC2)c1 (stereo unspecified)	cell number change		31.9%
same	AC50	[1]	29.1 µM [rising, single point]
CC(=O)/C=C/n1c(=S)oc2ccccc21	cell number change		-41.8%
same	AC50	[1]	6.51 µM [falling, partial curve]
same	AC50	[2]	2.59 µM [falling, full curve]
CCOc1ccc(/C=C/C(=O)N(CC)CC(=O)Nc2ccc3c(c2)OCCO3)cc1OCC	AC50	[2]	29.1 µM [rising, single point]
O=C(Nc1ccc(C(=O)N2CCCCC2)cc1)c1ccc([N+](=O)[O-])cc1	cell number change		-6.44%
